Source: article doi:10.1101/2020.09.21.305680
No constants are given. Whether binding was seen depends on the method and setting. Some binding calls cover weakened binding; strength is not graded here.

Columns and labels:
Test in all cases: two-hybrid
[1] = target: T1, Sld3 P623Q (S. cerevisiae) (UniProt P53135)
T1 sequence: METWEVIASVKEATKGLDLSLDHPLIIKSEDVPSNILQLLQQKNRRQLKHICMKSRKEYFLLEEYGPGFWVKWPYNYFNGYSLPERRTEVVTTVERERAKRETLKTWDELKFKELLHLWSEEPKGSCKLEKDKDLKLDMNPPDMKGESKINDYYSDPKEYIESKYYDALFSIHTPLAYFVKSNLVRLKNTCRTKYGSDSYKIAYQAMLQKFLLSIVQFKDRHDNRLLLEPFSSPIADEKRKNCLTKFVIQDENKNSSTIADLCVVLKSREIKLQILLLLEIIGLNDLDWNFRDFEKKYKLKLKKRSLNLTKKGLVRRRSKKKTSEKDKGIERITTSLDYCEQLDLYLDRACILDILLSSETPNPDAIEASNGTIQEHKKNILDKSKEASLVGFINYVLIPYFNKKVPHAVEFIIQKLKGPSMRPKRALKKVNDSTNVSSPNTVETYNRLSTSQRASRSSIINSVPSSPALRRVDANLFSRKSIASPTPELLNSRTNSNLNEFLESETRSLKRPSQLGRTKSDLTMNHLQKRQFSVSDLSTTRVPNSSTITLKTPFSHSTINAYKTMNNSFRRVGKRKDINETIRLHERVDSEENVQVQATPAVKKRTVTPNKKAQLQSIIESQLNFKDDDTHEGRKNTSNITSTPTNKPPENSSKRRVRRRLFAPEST

[2] = target: T2, Sld3^Esa1(-)-3 (S. cerevisiae) (UniProt P53135)
T2 sequence: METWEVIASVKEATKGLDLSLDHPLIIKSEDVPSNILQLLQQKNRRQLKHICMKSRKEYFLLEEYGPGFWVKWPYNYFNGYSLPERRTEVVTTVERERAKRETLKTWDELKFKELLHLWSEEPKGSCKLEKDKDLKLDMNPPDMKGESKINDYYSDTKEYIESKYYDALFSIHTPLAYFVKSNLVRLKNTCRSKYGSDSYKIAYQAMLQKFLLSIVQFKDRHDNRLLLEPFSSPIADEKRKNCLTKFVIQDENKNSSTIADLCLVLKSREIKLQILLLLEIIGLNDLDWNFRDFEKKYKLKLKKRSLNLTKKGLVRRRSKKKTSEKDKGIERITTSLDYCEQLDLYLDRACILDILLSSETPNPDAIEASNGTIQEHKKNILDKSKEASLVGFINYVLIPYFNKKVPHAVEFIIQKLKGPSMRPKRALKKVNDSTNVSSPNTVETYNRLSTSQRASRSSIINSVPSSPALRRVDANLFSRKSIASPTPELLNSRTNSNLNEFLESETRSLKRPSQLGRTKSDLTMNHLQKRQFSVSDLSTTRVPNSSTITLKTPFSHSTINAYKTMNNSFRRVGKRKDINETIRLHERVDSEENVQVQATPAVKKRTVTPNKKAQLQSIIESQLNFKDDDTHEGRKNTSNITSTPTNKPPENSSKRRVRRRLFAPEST

Sld7 (S. cerevisiae) = target: T3, Sld7 (S. cerevisiae) (UniProt Q08457)
T3 sequence: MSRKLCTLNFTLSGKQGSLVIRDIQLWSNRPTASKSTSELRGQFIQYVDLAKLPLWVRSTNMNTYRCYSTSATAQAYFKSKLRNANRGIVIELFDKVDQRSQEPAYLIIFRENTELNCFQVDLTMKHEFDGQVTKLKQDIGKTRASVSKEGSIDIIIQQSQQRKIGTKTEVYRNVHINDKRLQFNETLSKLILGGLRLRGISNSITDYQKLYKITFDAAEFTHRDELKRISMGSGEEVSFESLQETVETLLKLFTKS

[3] = target: T4, Sld3 S459L (S. cerevisiae) (UniProt P53135)
T4 sequence: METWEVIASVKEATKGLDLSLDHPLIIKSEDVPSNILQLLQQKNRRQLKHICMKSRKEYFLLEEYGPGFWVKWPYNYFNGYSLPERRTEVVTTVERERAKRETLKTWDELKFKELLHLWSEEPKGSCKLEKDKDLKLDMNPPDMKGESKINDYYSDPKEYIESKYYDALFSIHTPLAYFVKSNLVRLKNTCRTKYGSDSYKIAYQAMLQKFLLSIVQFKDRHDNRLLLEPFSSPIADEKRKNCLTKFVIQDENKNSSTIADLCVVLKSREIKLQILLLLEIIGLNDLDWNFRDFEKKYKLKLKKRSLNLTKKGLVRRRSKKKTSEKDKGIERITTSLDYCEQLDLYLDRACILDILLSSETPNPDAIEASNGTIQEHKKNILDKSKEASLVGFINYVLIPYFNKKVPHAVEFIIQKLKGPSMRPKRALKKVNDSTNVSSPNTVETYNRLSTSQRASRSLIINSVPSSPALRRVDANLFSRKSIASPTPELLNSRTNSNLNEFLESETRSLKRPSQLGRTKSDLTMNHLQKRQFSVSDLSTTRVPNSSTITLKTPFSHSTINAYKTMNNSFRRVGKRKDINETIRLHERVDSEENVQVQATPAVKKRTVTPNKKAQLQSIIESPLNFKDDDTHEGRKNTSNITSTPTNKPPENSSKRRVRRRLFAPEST

binding [1]: binds
binding [2]: no binding
binding (Sld7 (S. cerevisiae)): binds weakly
binding [3]: binds
B1: Esa1 (protein, UniProt Q08649 1-445)
chain: MSHDGKEEPGIAKKINSVDDIIIKCQCWVQKNDEERLAEILSINTRKAPPKFYVHYVNYNKRLDEWITTDRINLDKEVLYPKLKATDEDNKKQKKKKATNTSETPQDSLQDGVDGFSRENTDVMDLDNLNVQGIKDENISHEDEIKKLRTSGSMTQNPHEVARVRNLNRIIMGKYEIEPWYFSPYPIELTDEDFIYIDDFTLQYFGSKKQYERYRKKCTLRHPPGNEIYRDDYVSFFEIDGRKQRTWCRNLCLLSKLFLDHKTLYYDVDPFLFYCMTRRDELGHHLVGYFSKEKESADGYNVACILTLPQYQRMGYGKLLIEFSYELSKKENKVGSPEKPLSDLGLLSYRAYWSDTLITLLVEHQKEITIDEISSMTSMTTTDILHTAKTLNILRYYKGQHIIFLNEDILDRYNRLKAKKRRTIDPNRLIWKPPVFTASQLRFAW
